From PubChem BioAssay AID1347075 (National Center for Advancing Translational Sciences (NCATS), 2019)
The whole screen tested about 400,000 compounds, of which about 5,500 (1.4%) were called active. The shares of active, inactive and inconclusive entries below differ from those in the screen. Calls come from the whole dose curve; as a rule, active = well fitted cell-killing curve with a large enough effect; inconclusive = small, poorly fitted or top-dose-only effect, or effect the other way; inactive = flat fitted curve, though single readings scatter. Where the call is inconclusive, the potency comes from a doubtful curve fit.

Assay: qHTS assay for MDR1-selective chemotherapeutics: Primary screen using the parental adenocarcinoma cell KB-3-1; note: nearly all actives have a fitted effect of over 60% in size
Conditions: KB-3-1 viability, CellTiter-Glo ATP luminescence, 72 h; activity change, negative = cytotoxic: at 46.1 µM (top of the series)
Procedure, shortened: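 Viability of parental KB-3-1 cells, measured by CellTiter-Glo luminescence, followed a 72 h incubation at 37 °C with pinned compounds in phenol-red-free DMEM containing 10% FBS.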
% is set by controls: 0 for no effect and ±100 for the full control effect; potency is the fitted concentration of half-maximal effect.

SMILES	Potency	activity change, negative = cytotoxic
O=C(CN1CCN(c2ncccn2)CC1)Nc1ccccc1C(F)(F)F	inconclusive: 0.411 µM [rising, full curve, poor fit]	
COc1ccc(O)c(CN2CC3CCC(CC3)C2)c1		inactive: 4.18%
COc1ccc(CNC(=O)C(C)n2nc(C)c3sc4ccccc4c3c2=O)cc1OC (stereo not given)		inactive: -19.4%
O=C(c1cnc2nc3ccccc3n2c1)c1cc(F)ccc1O	inconclusive: 29.1 µM [rising, single point]	
Cc1csc2nc(-c3cccc(NC(=O)c4ccccc4F)c3)cn12		inactive: 2.36%
CCCCCCCC[n+]1cccc2c3ccccc3ccc21	inconclusive: 0.651 µM [cytotoxic, full curve, poor fit]	
COc1ccc(S(=O)(=O)NCc2ccccn2)cc1NC(=O)c1ccccc1	active: 13 µM	
CCN(c1ccccc1)S(=O)(=O)c1c(C)noc1C		inactive: -7.04%
Cc1cc(C)c(-c2csc(NC(=O)C3=NN(c4ccccc4)C(=O)CC3)n2)c(C)c1	inconclusive: 18.4 µM [cytotoxic, partial curve]	
Cc1ccc(CNC(=O)C2CCCN(S(=O)(=O)c3c(C)n[nH]c3C)C2)cc1 (stereo not given)		inactive: -2.45%
CN(C)c1ccc(CNC(=O)CCc2ccc(S(=O)(=O)N3CCCCCC3)cc2)cc1		inactive: -6.68%
Clc1ccc(COc2cccc(CNCc3ccncc3)c2)cc1	inconclusive: 11.6 µM [cytotoxic, partial curve]	
O=C(CN1C(=O)NC2(CCCC2)C1=O)N1CCN(c2ccccc2O)CC1		inactive: 14.8%
CCCCCCCCN1C(=O)[C@H](CC(=O)N2CCCC2)C[C@@]2(C(=O)OCC)CCCC=C12	inconclusive: 11.6 µM [cytotoxic, partial curve]	
Cc1ccc(N2C3=C(C(=O)CC(C)(C)C3)C(c3cn(C)nc3C)C3=C2CC(C)(C)CC3=O)cc1	inconclusive: 29.1 µM [cytotoxic, single point]	
CCCCn1nnnc1C(c1cc2ccccc2o1)N1CCN(c2c(C)cccc2C)CC1 (stereo not given)	inconclusive: 29.1 µM [cytotoxic, single point]	
COc1cc(Br)cc(/C=C/c2ccc3cccc(O)c3n2)c1O	inconclusive: 23.1 µM [cytotoxic, single point]	
O=S(=O)(NCc1cccs1)c1ccc(Cl)s1	inconclusive: 25.9 µM [cytotoxic, partial curve, poor fit]	
Cc1ccc(C(=O)OCC(=O)N2c3ccccc3NC(=O)C2(C)C)cc1S(=O)(=O)N1CCCCC1	inconclusive: 29.1 µM [rising, single point]	
O=C(NCc1ccco1)Nc1nnc([C@H]2C[C@H](O)[C@@H](CO)O2)s1		inactive: 1.51%

Sorted by count of non-hydrogen atoms (falling): 3 of the compounds above.
SMILES	Potency	activity change, negative = cytotoxic
COc1ccc(CNC(=O)C(C)n2nc(C)c3sc4ccccc4c3c2=O)cc1OC (stereo not given)		inactive: -19.4%
O=C(CN1C(=O)NC2(CCCC2)C1=O)N1CCN(c2ccccc2O)CC1		inactive: 14.8%
Clc1ccc(COc2cccc(CNCc3ccncc3)c2)cc1	inconclusive: 11.6 µM [cytotoxic, partial curve]	
